In all, about 52,000 sequences went through this assay and about 210 (0.4%) were called active.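 The calls were made as follows: active = gene whose silencing raises cell survival under the drug, median off-target-corrected z-score across its silencing RNAs 2 or more; inactive = the rest.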 This is one part of the list.
Assay: Resistance to Poly (ADP-Ribose) Polymerase inhibitor: Gene Identification via Genome-wide siRNA Screen
Conditions: mouse BRCA2 R2336H ES cells, olaparib, CellTiter-Glo viability; hits give high values
Method in brief: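 Genome-wide siRNA screen (3 siRNAs/gene, 20 nM) in mouse ES cells carrying hypomorphic BRCA2 R2336H; olaparib 500 nM added 48 h post-transfection, CellTiter-Glo viability 72 h later. Normalized to plate-median negative control; MAD z-scores, gene median, seed-adjusted.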
With CCAACAACGGCAUUCACUATT against Ebf3 the z-score was inactive: 0.4. For AAAAAACAGCACCCUGAUGTT against Olfr204, the z-score was inactive: 0.273. For GGACAAAGACAAACUUUAATT against Scn4a, the z-score was inactive: -0.856. In the case of GCUUUCCUGUGCUCCAACGTT against Olfr527, the z-score is reported as inactive: -0.3. With GGCAAAUGGAAAAUUCUGCTT against Rnf12 the z-score was inactive: -0.843. With GGAUAAGAGACAAUGAAUUTT against Fut7 the z-score was inactive: 0.928. With GGCCCUGUAUUUCUCUGACTT against Plat the z-score was inactive: -0.323. With CCAAGUGUAUUUCACAUAATT against F2r the z-score was inactive: -0.313. With GGUGGUCUAAGUCCUGACATT against Hmx1 the z-score was inactive: -0.564. For “GGUAGAUUCUAAUUGUUCATT against 5730536A07Rik”, the z-score was inactive: 0.933. With “GCUUGCUUCGCCUACAUUGTT against 1200006F02Rik” the z-score was inactive: -0.0338. In the case of GCCCACUUUCUAGGUAGUUTT against Olfr703, the z-score is reported as inactive: -1.14. In the case of GCAUGAGGAAAAAUCUUCATT against Neurod4, the z-score is reported as inactive: 0.314. For GCUCUUUCAACAUGUAGUUTT against Olfr1180, the z-score was inactive: 0.422. In the case of CCCGACACCAGUGGUAAAATT against Gluld1, the z-score is reported as inactive: -0.721. For GUCCUGAAAAUGCUAUUCUTT against Olfr68, the z-score was inactive: 1.09. In the case of GCUAUCAUUAACAACAAAGTT against Olfr808, the z-score is reported as inactive: 0.663. With CGAUAUGAUGACAAAUCAGTT against Pik3ap1 the z-score was inactive: 0.273. With GGAAUGAGCUCGAUUAUAATT against Nrip1 the z-score was inactive: 0.467. For GGAGAGCAUUCCCAUUGCUTT against Ddx6, the z-score was inactive: -0.664. With GGAAGCACCCACAAAACCUTT against Barx2 the z-score was inactive: -0.668. With GCUAAAAAAGCUUCUUCAUTT against Gypc the z-score was inactive: 0.765. For GGAAGGAGAAUGGUACUGGTT against Cd209e, the z-score was inactive: 1.42. With “GGGUAAGAACUUAUUAUUCTT against 5730461K03Rik” the z-score was inactive: 0.659. In the case of GGAUCUUUUAGCUAACCUATT against Tesk2, the z-score is reported as inactive: 0.758. For “GGCAAGUUAAUGGAUCAAATT against 6330415F13Rik”, the z-score was inactive: 1.04. With “CCCAUCCAAGAUUUGAUUUTT against 2310002L09Rik” the z-score was inactive: 0.176. For GGAGACACAUAGGUGUAAATT against H2-T23, the z-score was inactive: 0.596. In the case of CCAGCUUUUACCUAAUACCTT against Ggt1, the z-score is reported as inactive: -0.685. With GGUGACAAAGAAAACAACATT against Il12rb2 the z-score was inactive: 0.108. In the case of “GGCACUCAGCAAGAUUGUATT against 2310073E15Rik”, the z-score is reported as inactive: -1.16. With “GGGAGAGGACGACCUAAAATT against 4921524J17Rik” the z-score was inactive: -0.0281. With GGCAUGAAUGGGAUACAUGTT against Srpk2 the z-score was inactive: -0.208. In the case of GGAGCUUUGAAGAGACUGGTT against Olfr117, the z-score is reported as inactive: -1.77. With GCGAGUGUAUAAUAUUCCUTT against Blnk the z-score was inactive: -0.783. For “GGUUUUUUUGCUAAUUAGCTT against 3110023E09Rik”, the z-score was inactive: 0.475. With “AACUGGACCACGGUACCAATT against A330070K13Rik” the z-score was inactive: -1.16. In the case of GGAAGAAAAAGAGGACACATT against Prkwnk4, the z-score is reported as inactive: 0.133. In the case of AAAUGAUAUCAAUAAAAUATT against MGC78233, the z-score is reported as inactive: -0.176. For GGCUCUGCCAUUUUCCCUUTT against F12, the z-score was inactive: 0.273. In the case of “GCACACCGUUUACCCUACCTT against 9830130M13”, the z-score is reported as inactive: 0.41. For GCAUACCUAGGAAAAAACUTT against Ednra, the z-score was inactive: 0.796. For GCUUCUUACUGAUUGAUUGTT against Mgrn1, the z-score was inactive: 0.324. For GGUGAUAAUUAAUGUCUUGTT against Birc1a, the z-score was inactive: 1.92. For GGAAGUAAUCAAGAAAUCATT against Gpx4, the z-score was inactive: 0.121. In the case of “GGCUGUCUUCUGAUCAAUUTT against 6330442E02Rik”, the z-score is reported as inactive: 0.47. With “GCUGUUAAGGAAGGCGGACTT against D19Bwg1357e” the z-score was inactive: 0.833. For GGUCUAACGAGUUCAAAAATT against Brpf1, the z-score was inactive: 1.06. For GGAUCCAUUUUGAGGAUUUTT against Vipr1, the z-score was inactive: 0.716. For “GGUGGGAAGAUAGAUAAAATT against 5430432N15Rik”, the z-score was inactive: -0.654. In the case of CCAGUGUUCUUACCUGGUGTT against Sesn2, the z-score is reported as inactive: 0.819. For GGAACAAAUUCUGGAGUUGTT against Zfp287, the z-score was inactive: 0.225. In the case of GCCCAGUUCAACGGUGAAUTT against Zbtb1, the z-score is reported as inactive: 0.15. In the case of GGUGUUUGAUAGGUAUCUUTT against Ppp2r4, the z-score is reported as inactive: 0.179. With GUUUUUCAUACAGUAGUAGTT against V1rc33 the z-score was inactive: -1.67. For GGGUUACCAGACUAACAAATT against Stfa3, the z-score was inactive: -1.02. For GGUUCCAGUCUUUAAUUUCTT against Tpst1, the z-score was inactive: 0.308. For GGUGACCAGCUCCAUUUCUTT against Wisp2, the z-score was inactive: 0.818. With “GCACUUAUGGCCAUUUCAGTT against 2610318K02Rik” the z-score was inactive: -1.58. With GGGUCAAACCCAUACAGCUTT against Wdr22 the z-score was inactive: 0.181. With GGUGUCCAAUAUUUUGAAGTT against Zfp120 the z-score was inactive: 0.287. For CCCGGAUCUUUUCCUUACATT against Klf1, the z-score was inactive: 1.52. With “GGUAGUCUUGACCCAAAAGTT against 3230401K02Rik” the z-score was inactive: 0.405. In the case of GGACUCUGAUCUCUAUCAGTT against Tac2, the z-score is reported as inactive: 0.00988. For CCAUACAGGGUUAGCUCAUTT against LOC382243, the z-score was inactive: 0.311. With GGUAUUUAGUAAACACCCATT against Edar the z-score was inactive: 0.782. With GGAAGUAAACCUUCAUGAATT against Tnfsf5 the z-score was inactive: 1. For GGCUAUGAAUCCAGAGCUUTT against Unc84a, the z-score was inactive: -0.556. With GGGACUCAACCUAUAUCUUTT against Gnpat the z-score was inactive: 0.00266. With GGAAGAGCAUAUGGAAGACTT against Nxf7 the z-score was inactive: 0.958. With “GGAAAAUUGCAUGAGGGUUTT against E330026B02Rik” the z-score was inactive: -1.47. In the case of GGAAAACUUGAAGACAGAUTT against Zfp291, the z-score is reported as inactive: -0.914. For GGAACAUAAUGCAUUACCCTT against Nr1d2, the z-score was inactive: 1.38. In the case of GGUGAAAUUACAGCAUUGUTT against Otx1, the z-score is reported as inactive: -0.695. With “GGACUUGGAAGUAAUUUUCTT against C230071H18Rik” the z-score was inactive: 2.75. With GGUGUGUGCUUCAUCUAAATT against Smpdl3a the z-score was inactive: 0.147. With GGCAGAGCAGUUUUCCUCATT against Kcna4 the z-score was inactive: -2.29. For GGAAUAACAGAUCAUACAGTT against Olfr194, the z-score was inactive: 0.331. In the case of GGAAUCUGCUUUCAGCUUGTT against Olfr1044, the z-score is reported as inactive: 1.3. For GGGCAUCAAACCUACUGUCTT against Bat2, the z-score was inactive: 0.44. With CCACUUUCACAUGAAGUUATT against Eif2s3x the z-score was inactive: -2.28. In the case of “GCAGUUUUGUCAAGUUAGATT against 6430517E21Rik”, the z-score is reported as inactive: 1.86. In the case of CCUCACUCUAUAAUAAAGATT against MGC58341, the z-score is reported as inactive: -0.0889. For GGAAAGUCUAAAGGAAAUUTT against Crnkl1, the z-score was inactive: -0.913. For GCGCAUCAAAAUUGAGAGUTT against Helz, the z-score was inactive: -0.972. In the case of “GGACAAACAGGGUUAUUUATT against 1500001A10Rik”, the z-score is reported as inactive: 0.488. For “GGGAGCUCCAUUUAAAUUATT against A230103N10Rik”, the z-score was inactive: 0.137. In the case of GGAGUAUUACGUCUGAUAUTT against Nrxn1, the z-score is reported as inactive: -0.143. For GGAAAUGAGUGAAGAUGAATT against Cdc2l1, the z-score was inactive: -2.01. In the case of GGACUAUCGGGAGAAAGUGTT against Ywhaq, the z-score is reported as inactive: 0.286. For GGUAUUGGGCCAUUGGUUGTT against MapKapk3, the z-score was inactive: 0.734. In the case of CCUACUCCAAUGCUGUAGCTT against Slc27a1, the z-score is reported as inactive: -0.591. With “GCUUUAUUCACUCACUUUCTT against 4833446K15Rik” the z-score was inactive: -0.636. For GGAAAGAUGAACAUGAAAGTT against Terf2, the z-score was inactive: 0.32. In the case of CCAUAAGUGCCCUCGAGAUTT against Ka35, the z-score is reported as inactive: -0.0244. In the case of “GGGCAACUCUGCAUACUGUTT against B230343H07Rik”, the z-score is reported as inactive: -0.0335. In the case of CCAACAACAGAUGCACCCUTT against Ccl11, the z-score is reported as inactive: 2.19. In the case of “GAAUCAGCUGUUCUCUCACTT against 1110025I09Rik”, the z-score is reported as inactive: 0.39. For GGUAUAAGUUGGCAAGAUCTT against Cry2, the z-score was inactive: -0.128. With “CCACUCUAUUUGUUUGAAATT against 9130014G24” the z-score was inactive: 0.76. With GGUGUUCCACAAGCAAUGGTT against V1rf1 the z-score was inactive: -0.841. With GGAAAAGAAGCUACGCUUGTT against Rnu3ip2 the z-score was inactive: -0.829. With “GCCAUGAAUAUUGUGCGAATT against 0610007P06Rik” the z-score was inactive: -0.158. In the case of GGGUUUUUGUCAAAUCUGUTT against Ttc5, the z-score is reported as inactive: -0.694.

From PubChem BioAssay AID1347423 (Functional Genomics Laboratory (NCATS/FGL), 2020)
